Laboratory results reported in patent US20230183356A1, “HIF-1a MODULATORS AND USES THEREOF” (Brown University, priority 2021, published 2023).
“Also recorded” adds a separate entry of the source. At least one compound was matched to its structure with a doubt left.

Legend:
Type in all cases: cell-based
[1] = tested on: HIF-1α; assay: Western blot of HIF-1α expression in HCT116 cells; conditions: Smurf2 siRNA 48 hours, normoxia 6 hours, Ro3306 5 μM, palbociclib 10 μM, abemaciclib 1 μM
Protocol: HCT116 cells were obtained from American Type Culture Collection (ATCC) and were maintained according to ATCC recommendation in McCoy's 5A medium (Hyclone) with 10% fetal bovine serum (FBS) (Hyclone) and 1% penicillin/streptomycin (P/S) (Corning). Cells were regularly tested for mycoplasma and authenticated. Cells were maintained at 37° C. in 5% CO2. Hypoxia treatment was performed in a hypoxia chamber (In vivo2, Ruskinn) which maintains 0.5% O2 and 5% CO2 at 37° C.
Plasmid expression was performed by 24 hours transfection using Opti-MEM (Thermo Fisher Scientific) and Lipofectamine 2000 (Life Technologies). Knockdown experiments were performed by siRNA transfection for 48 hours with Opti-MEM and Lipofectamine RNAiMAX (Life Technologies), according to the manufacturer's protocol.
Treated cells were lysed in RIPA buffer (Sigma). Protein concentrations were determined using a BCA Protein Assay Kit (Life Technologies). Equal amounts of total protein were boiled with NuPAGE™ LDS sample buffer (Thermo Fisher Scientific) and reducing agent (Invitrogen) or 2-mercaptoethanol. Samples were analyzed with SDS-PAGE. Proteins were transferred to an Immobilon-P PVDF membrane (EMD Millipore). Primary and secondary antibodies were added in order. Signals were detected after addition of the ECL western blotting substrate (Thermo Fisher Scientific).

[2] = tested on: HIF-1α; assay: Ubiquitination assay on HIF-1α (HA-ubiquitin, HIF-1α immunoprecipitation, western blot); conditions: HCT116 cells, HA-ubiquitin transfected, MG132 pretreatment, normoxia, 4 hours
[3] = tested on: HIF-1α; assay: Proteomic mass spectrometry on immunoprecipitated HIF-1α from hypoxic HCT116 cells; conditions: hypoxia 0.5% O2, 6 hours, MG132 2 μM, compared with untreated group

Row | SMILES | HIF-1α expression increased by Smurf2 knockdown, effect of treatment [1] | amount of HA-ubiquitin ligated to HIF-1α [2] | Ser451 phosphorylation on HIF-1α [3]
1 | CCN1CCN(Cc2ccc(Nc3ncc(F)c(-c4cc(F)c5nc(C)n(C(C)C)c5c4)n3)nc2)CC1 [abemaciclib] | further increased; also recorded: not reversed |  | 
2 | CC(=O)c1c(C)c2cnc(Nc3ccc(N4CCNCC4)cn3)nc2n(C2CCCC2)c1=O [palbociclib] | further increased; also recorded: not reversed | increased | absence
